Results on 36 targets are retold here after the supplement of paper PMC7666118.

Protein sequences, listed by entry. Tags and fused reporters are not part of them. Lines headed by an entry give the natural chain unless they say otherwise; changes in a name come on top.
UniProt P15291: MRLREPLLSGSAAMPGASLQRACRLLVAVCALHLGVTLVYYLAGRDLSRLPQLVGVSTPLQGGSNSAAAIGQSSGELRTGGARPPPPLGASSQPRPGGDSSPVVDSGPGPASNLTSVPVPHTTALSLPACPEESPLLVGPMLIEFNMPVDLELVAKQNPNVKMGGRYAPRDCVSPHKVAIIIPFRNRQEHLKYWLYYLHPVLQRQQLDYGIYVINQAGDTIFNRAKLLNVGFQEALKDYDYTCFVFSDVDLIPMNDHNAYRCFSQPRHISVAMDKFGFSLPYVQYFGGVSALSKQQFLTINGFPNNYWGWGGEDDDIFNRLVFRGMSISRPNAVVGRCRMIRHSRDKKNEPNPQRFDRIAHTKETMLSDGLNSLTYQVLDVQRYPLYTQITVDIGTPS
UniProt P54252: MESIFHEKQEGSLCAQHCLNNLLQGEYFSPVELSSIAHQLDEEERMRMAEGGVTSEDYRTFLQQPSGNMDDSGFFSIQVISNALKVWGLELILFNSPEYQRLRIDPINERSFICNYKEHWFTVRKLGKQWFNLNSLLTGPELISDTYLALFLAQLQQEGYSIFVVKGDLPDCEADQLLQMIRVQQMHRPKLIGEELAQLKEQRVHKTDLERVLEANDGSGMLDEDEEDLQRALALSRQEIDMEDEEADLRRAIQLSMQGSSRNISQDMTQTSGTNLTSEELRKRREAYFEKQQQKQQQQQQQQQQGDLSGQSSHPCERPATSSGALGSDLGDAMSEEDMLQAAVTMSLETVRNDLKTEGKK
UniProt Q53F19: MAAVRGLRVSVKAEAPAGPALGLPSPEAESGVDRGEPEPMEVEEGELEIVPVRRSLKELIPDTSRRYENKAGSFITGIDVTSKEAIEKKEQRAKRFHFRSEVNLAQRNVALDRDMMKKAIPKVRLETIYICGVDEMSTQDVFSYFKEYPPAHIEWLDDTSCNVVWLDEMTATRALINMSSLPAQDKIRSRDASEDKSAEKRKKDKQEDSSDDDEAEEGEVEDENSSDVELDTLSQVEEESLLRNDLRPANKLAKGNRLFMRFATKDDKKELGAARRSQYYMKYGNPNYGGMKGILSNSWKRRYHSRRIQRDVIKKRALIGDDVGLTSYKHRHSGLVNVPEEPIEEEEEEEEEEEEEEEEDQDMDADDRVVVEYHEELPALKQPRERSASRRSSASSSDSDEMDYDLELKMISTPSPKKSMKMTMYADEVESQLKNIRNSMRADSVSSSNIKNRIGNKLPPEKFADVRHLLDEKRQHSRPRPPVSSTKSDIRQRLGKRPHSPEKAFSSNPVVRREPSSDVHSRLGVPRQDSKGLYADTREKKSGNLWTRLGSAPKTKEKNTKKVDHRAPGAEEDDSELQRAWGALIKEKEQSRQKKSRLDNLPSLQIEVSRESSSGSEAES
UniProt Q93050, whole entry: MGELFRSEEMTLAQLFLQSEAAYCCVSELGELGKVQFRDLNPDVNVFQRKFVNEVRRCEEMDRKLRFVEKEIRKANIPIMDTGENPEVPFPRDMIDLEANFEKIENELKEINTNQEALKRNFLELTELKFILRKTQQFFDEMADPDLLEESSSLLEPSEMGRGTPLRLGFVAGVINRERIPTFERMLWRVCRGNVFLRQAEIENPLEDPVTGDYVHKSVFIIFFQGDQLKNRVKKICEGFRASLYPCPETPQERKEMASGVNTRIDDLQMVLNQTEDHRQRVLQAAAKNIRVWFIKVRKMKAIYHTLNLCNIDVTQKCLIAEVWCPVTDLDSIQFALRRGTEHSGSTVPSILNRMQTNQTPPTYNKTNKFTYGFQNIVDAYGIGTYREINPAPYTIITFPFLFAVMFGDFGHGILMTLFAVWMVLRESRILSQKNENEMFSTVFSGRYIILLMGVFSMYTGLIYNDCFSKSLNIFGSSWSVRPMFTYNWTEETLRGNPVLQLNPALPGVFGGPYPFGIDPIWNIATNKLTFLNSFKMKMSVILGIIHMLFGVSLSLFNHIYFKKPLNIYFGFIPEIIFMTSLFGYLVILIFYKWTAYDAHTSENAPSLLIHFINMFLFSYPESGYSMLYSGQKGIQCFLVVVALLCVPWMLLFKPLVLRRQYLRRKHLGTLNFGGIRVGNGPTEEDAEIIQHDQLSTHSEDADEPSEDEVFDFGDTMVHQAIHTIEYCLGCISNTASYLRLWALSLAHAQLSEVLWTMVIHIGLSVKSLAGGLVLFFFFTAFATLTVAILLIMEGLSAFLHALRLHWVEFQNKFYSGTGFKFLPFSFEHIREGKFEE
UniProt Q9H0W9: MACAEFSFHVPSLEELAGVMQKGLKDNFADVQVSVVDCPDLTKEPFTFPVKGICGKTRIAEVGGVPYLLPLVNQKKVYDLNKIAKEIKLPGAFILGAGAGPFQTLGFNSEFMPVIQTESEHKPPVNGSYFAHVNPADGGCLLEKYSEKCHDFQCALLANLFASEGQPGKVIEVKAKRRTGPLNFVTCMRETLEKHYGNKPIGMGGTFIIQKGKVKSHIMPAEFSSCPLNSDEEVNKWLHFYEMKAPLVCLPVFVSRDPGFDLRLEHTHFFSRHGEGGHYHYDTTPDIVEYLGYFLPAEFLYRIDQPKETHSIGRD
UniProt P27449, whole entry: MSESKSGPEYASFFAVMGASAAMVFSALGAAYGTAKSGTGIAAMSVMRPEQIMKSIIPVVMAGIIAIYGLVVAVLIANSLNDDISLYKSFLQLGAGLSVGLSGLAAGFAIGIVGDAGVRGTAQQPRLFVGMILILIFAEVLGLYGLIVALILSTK
UniProt Q2VPK5: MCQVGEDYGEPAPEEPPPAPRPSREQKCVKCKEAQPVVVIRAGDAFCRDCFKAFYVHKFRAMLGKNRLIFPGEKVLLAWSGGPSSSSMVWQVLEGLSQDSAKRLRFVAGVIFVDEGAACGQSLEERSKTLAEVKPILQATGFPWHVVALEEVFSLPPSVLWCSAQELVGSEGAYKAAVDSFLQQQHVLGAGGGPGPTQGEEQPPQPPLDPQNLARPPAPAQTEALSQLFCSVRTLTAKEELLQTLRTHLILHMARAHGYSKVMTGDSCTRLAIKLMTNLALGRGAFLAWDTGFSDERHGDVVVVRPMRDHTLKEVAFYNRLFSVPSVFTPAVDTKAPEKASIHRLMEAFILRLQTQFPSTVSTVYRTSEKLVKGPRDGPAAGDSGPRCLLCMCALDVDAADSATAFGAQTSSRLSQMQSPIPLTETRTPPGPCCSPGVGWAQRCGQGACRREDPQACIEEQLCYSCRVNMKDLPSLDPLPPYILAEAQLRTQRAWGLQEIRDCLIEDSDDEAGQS
UniProt P46379: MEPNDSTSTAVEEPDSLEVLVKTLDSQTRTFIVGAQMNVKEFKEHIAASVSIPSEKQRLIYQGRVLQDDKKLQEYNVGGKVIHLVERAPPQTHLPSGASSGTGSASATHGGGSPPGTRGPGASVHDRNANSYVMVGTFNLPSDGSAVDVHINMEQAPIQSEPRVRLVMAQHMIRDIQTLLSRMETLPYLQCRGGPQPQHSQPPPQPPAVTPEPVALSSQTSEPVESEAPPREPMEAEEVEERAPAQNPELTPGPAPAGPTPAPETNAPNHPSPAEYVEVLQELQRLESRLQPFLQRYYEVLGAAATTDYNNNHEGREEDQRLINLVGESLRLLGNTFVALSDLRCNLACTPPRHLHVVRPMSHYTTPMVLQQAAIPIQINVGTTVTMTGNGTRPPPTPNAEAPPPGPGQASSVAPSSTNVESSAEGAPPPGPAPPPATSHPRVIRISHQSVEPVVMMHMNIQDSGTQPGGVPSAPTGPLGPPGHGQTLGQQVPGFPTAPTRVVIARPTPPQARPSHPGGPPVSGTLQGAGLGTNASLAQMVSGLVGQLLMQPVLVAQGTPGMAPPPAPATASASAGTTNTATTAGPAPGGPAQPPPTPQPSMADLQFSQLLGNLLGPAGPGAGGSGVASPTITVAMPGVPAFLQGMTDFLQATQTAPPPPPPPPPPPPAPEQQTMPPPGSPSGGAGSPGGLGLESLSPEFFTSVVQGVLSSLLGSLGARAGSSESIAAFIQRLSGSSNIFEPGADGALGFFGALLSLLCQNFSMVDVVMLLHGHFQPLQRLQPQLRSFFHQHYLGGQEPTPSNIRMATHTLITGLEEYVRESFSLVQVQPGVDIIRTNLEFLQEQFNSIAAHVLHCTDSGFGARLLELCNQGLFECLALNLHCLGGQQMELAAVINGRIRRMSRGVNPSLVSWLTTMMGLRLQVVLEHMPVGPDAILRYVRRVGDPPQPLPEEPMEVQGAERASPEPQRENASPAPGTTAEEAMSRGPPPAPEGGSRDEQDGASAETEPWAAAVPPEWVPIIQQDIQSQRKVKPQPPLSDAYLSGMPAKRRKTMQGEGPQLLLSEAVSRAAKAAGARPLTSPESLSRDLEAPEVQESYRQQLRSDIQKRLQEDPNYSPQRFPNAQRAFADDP
UniProt Q9BTE3: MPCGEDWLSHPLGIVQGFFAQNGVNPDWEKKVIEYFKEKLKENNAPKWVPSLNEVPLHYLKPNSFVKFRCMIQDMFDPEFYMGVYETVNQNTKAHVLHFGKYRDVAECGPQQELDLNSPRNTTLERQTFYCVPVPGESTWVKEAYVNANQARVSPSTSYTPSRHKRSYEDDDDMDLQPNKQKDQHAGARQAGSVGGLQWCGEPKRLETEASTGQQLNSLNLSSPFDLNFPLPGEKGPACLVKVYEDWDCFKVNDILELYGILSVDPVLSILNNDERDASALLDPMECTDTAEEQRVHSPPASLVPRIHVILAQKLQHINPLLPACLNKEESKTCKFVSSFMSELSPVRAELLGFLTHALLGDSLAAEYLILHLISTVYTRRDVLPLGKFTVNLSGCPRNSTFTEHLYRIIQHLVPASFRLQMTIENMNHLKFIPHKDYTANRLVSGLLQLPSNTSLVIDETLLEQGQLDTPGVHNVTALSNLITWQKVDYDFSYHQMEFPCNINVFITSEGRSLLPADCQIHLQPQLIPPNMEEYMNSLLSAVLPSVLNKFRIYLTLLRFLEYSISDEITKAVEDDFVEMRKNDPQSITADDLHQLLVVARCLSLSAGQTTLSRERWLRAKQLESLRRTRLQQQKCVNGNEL
UniProt Q8NCR0: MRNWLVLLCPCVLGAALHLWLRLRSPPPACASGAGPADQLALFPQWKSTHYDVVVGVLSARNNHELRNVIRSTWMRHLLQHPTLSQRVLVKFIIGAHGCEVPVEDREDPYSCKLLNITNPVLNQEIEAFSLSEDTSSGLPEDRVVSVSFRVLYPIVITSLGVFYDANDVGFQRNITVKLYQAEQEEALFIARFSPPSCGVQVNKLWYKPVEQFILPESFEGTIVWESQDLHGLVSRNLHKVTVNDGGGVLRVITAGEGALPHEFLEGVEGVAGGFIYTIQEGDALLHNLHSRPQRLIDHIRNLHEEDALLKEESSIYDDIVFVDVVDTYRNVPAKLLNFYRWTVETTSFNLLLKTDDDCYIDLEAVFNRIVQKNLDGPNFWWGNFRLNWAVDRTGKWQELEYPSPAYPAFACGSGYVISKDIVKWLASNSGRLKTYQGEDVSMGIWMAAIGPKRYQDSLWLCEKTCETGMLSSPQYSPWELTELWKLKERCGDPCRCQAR
UniProt Q10588: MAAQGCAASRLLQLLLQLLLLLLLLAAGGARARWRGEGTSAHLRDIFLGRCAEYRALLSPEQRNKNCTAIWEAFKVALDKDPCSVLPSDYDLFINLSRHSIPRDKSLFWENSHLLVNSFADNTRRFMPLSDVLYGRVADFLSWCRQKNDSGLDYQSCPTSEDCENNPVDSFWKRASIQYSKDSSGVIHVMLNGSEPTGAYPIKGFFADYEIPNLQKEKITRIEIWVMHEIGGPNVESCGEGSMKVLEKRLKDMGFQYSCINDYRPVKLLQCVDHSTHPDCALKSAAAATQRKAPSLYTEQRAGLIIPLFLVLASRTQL
UniProt Q96C57: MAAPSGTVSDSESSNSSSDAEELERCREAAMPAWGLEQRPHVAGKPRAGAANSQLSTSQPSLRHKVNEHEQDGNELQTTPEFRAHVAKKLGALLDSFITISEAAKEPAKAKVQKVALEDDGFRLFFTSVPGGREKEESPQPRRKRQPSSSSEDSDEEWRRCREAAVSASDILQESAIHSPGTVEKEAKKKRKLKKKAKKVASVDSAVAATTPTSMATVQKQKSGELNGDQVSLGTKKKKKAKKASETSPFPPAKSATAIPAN
UniProt P56378: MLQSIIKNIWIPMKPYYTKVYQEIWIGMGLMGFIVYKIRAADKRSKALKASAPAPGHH
UniProt Q9NSK7: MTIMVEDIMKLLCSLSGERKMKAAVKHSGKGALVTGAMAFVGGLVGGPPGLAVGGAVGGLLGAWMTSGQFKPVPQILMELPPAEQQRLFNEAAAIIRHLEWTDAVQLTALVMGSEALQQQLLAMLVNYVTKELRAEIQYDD
UniProt P36543, whole entry: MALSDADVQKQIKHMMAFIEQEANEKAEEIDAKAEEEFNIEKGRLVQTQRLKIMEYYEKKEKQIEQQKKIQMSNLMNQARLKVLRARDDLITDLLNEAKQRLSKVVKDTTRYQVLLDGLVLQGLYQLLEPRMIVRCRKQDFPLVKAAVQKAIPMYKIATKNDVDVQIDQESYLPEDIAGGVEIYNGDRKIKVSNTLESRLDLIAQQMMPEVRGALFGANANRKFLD
UniProt P56385: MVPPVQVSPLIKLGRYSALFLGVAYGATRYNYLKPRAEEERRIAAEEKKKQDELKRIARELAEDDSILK
UniProt P56381: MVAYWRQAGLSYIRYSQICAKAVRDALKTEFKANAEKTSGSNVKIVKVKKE

This is one part of the list.

Compound in this test: COc1ccc(Cn2ccc3cc(C)c(C(=O)NO)cc32)cc1
The experiment in a line: dose-dependent thermal stabilisation call (2D-TPP, DLPTP, 10% FDR) (binary (1 = stabilised)); higher = stabilised by the compound. As to conditions: system: HL-60 intact cells; concentration range 0.04-10 µM. How it is done:
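2D thermal proteome profiling in intact HL-60 cells treated with BRD-3811 (0, 0.04, 0.29, 2, 10 uM) for 90 min at 37 C, then heated 3 min at one of 12 temperatures (42-63.9 C). Soluble protein was quantified by TMT10 MS. The value is the DLPTP call of the paper: dose-dependent thermal stabilisation over all temperatures at 10% FDR (F-test of a dose-response against a flat model); one experiment, one call per tested protein.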
For the target C14ORF1 (UniProt Q9UKR5), the “dose-dependent thermal stabilisation call” value is inactive: 0.
The value for B4GALT1 (UniProt P15291) was inactive: 0.
For ATXN3 (UniProt P54252), the “dose-dependent thermal stabilisation call” value was inactive: 0.
Regarding BTD (UniProt P43251), the “dose-dependent thermal stabilisation call” value was inactive: 0.
The figure for C19ORF62 (UniProt Q9NWV8) is inactive: 0.
Take B4GALT7 (UniProt Q9UBV7): the “dose-dependent thermal stabilisation call” value is inactive: 0.
C17ORF85 (UniProt Q53F19): the “dose-dependent thermal stabilisation call” value was inactive: 0.
For C15ORF40 (UniProt Q8WUR7), the “dose-dependent thermal stabilisation call” value is inactive: 0.
For the target C18ORF24 (UniProt Q96BD8), the “dose-dependent thermal stabilisation call” value was inactive: 0.
Consider ATP6V0A1 (UniProt Q93050), for which the “dose-dependent thermal stabilisation call” value is inactive: 0.
As to C11ORF54 (UniProt Q9H0W9), the “dose-dependent thermal stabilisation call” value is inactive: 0.
In the case of ATP8B4 (UniProt Q8TF62), the “dose-dependent thermal stabilisation call” value was inactive: 0.
On to BAG1 (UniProt Q99933), for which the “dose-dependent thermal stabilisation call” value was inactive: 0.
For the target ATP6V0C (UniProt P27449), the “dose-dependent thermal stabilisation call” value was inactive: 0.
As to BRD3 (UniProt Q15059), the “dose-dependent thermal stabilisation call” value was inactive: 0.
On to C15ORF15 (UniProt Q9UHA3), for which the “dose-dependent thermal stabilisation call” value is inactive: 0.
Turning to C17ORF59 (UniProt Q96GS4), the “dose-dependent thermal stabilisation call” value is inactive: 0.
For C16ORF84 (UniProt Q2VPK5), the “dose-dependent thermal stabilisation call” value is inactive: 0.
Regarding BRI3BP (UniProt Q8WY22), the “dose-dependent thermal stabilisation call” value was inactive: 0.
The value for BAT3 (UniProt P46379) was inactive: 0; that for AURKA (UniProt O14965) was inactive: 0; that for C10ORF119 (UniProt Q9BTE3) was inactive: 0.
With B3GALNT2 (UniProt Q8NCR0), the “dose-dependent thermal stabilisation call” value was inactive: 0.
For the target BST1 (UniProt Q10588), the “dose-dependent thermal stabilisation call” value was inactive: 0.
C12ORF43 (UniProt Q96C57): the “dose-dependent thermal stabilisation call” value is inactive: 0.
C14ORF2 (UniProt P56378): the “dose-dependent thermal stabilisation call” value is inactive: 0.
As to BAT2L (UniProt Q5JSZ5), the “dose-dependent thermal stabilisation call” value was inactive: 0.
Regarding C19ORF12 (UniProt Q9NSK7), the “dose-dependent thermal stabilisation call” value is inactive: 0.
The value for ATP6V1E1 (UniProt P36543) was inactive: 0; that for ATP5O (UniProt P48047) was inactive: 0; that for ATP5I (UniProt P56385) was inactive: 0.
Consider BCCIP (UniProt Q9P287), for which the “dose-dependent thermal stabilisation call” value was inactive: 0.
The figure for C10ORF12 (UniProt Q96JN0) is inactive: 0; for BCKDHA (UniProt P12694) it is inactive: 0; for BCAS3 (UniProt Q9H6U6) it is inactive: 0.
The figure for ATP5E (UniProt P56381) is inactive: 0.
